We go through two molecules from US20050227272A1.

The chains behind the UniProt entries cited, without tags or fusion partners.
UniProt P25963: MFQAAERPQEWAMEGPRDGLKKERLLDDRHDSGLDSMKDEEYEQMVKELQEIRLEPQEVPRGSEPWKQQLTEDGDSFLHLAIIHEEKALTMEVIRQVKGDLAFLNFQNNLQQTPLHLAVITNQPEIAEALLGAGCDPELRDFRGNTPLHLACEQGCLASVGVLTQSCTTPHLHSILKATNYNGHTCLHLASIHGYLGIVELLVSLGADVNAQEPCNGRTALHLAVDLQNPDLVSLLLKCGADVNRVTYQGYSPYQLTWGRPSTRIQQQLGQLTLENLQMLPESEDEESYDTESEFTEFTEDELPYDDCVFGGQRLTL

In experiment [1] the target is full-length IκBα cloned into the pGADT7 vector (yeast two-hybrid target) (UniProt P25963). The experiment can be described thus: yeast two-hybrid, β-galactosidase assay, empty pGADT7 as control.
The target in experiment [2] is clone from the pretransformed human spleen Matchmaker cDNA library that originated from the IκBα gene (human) (UniProt P25963). The experiment can be described thus: yeast two-hybrid screen of a human spleen cDNA library, high stringency.
Experiment [3] deals with IκBα (endogenous, HEK293 cells) (UniProt P25963). The experiment can be described thus: anti-His pull-down of His-SUMO4 complexes, 2D PAGE, MALDI-TOF/TOF.
The target is the same in experiment [4]. As to the kind of experiment: co-immunoprecipitation from HEK293 cells with anti-His beads, Western blot with IκBα and His antibodies.

Results are given in words; binding and its absence hold for the method and conditions named. For some of these results: Binding seen in cells or lysates may run through a third protein. Some binding calls cover weakened binding; strength is not graded here. For some of these results: Tags and fused reporters may be left off the sequences shown.

B1: SUMO4 coding sequence cloned into the pGBKT7 vector (yeast two-hybrid bait) (protein, not shown: large carriers)
chain: MANEKPTEEVKTENNNHINLKVAGQDGSVVQFKIKRQTPLSKLMKAYCEPRGLSMKQIRFRFGGQPISGTDKPAQLEMEDEDTIDVFQQPTGGVY
Consider B1, for which the binding entry in experiment [1] and in experiment [2] was “binds” in each case.

B2: His-tagged SUMO4 expressed in HEK293 cells from pcDNA3.1 (protein, not shown: small tags and cut ends)
chain: B1 chain
In the case of B2, the binding entry in experiment [3] and in experiment [4] was “binds” in each case.
